# Results as given in the supplement of paper PMC5770031.
# Counter-ions that a name gives are not always drawn. This is one part of the list. Single values are uncertain here, since repeats match poorly.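 Flies heterozygous for the ATM8 allele over a balancer chromosome carrying normal ATM were mated with each other on treated food. Parents laid eggs for 5–6 days and the young then developed for about 12 days, so both parents and larvae ate the compound. The read-out is the share of all emerged adults that carry two ATM8 copies, compared with 2% DMSO control vials. The paper called compounds neutral at 10–20% such offspring, harmful below 10%, and helpful above 20%.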 Square brackets hold non-standard residues; d marks the D form. Peptide text beside a SMILES is read from it. pGlu = O=C1CC[C@@H](C(=O)O)N1; Thz = O=C(O)[C@@H]1CSCN1
# System: Drosophila melanogaster ATM8 (temperature-sensitive ATM allele)
# Experiment: fraction of eclosed F1 progeny that are homozygous ATM8 (rescue of developmental lethality); higher = more rescue of ATM8 developmental lethality; extreme values may be limits of the assay
# Settings: compound concentration applied to food 0.2 mM; 21 °C
row,SMILES,fraction of eclosed F1 progeny that are homozygous ATM8
1,CCCCC1(COC(=O)CCC(=O)O)C(=O)N(c2ccccc2)N(c2ccccc2)C1=O,0.143
2,COc1cc(NC(C)CCCN)c2ncccc2c1 (centres undefined),0.3
3,Nc1ccc([As](=O)(O)O)cc1,0.0667
4,CC(C)(C)CC(C)(C)c1ccc(O)c(Cc2ccc(Cl)cc2Cl)c1,0.128
5,CCN(CC)CCOC(=O)C(c1ccccc1)c1ccccc1,0.0213
6,CCOC(=O)c1ccc(N)cc1,0.114
7,COc1cc2occc2c2oc(=O)ccc12,0.069
8,C[C@H]1[C@H](C)CC[C@]2(C(=O)O)CC[C@]3(C)C(=CC[C@@H]4[C@@]5(C)C[C@@H](O)[C@H](O)[C@@](C)(CO)[C@@H]5CC[C@]43C)[C@H]12,0.191
9,CC(C)CCCC(C)C1CCC2C3=CCC4CC(O)CCC4(C)C3CCC21C (centres undefined),0.113
10,C[C@]12CC[C@@H]3c4ccc(OS(=O)(=O)O)cc4CC[C@H]3[C@@H]1CCC2=O,0.303
11,COc1cccc(OC)c1C(=O)N[C@@H]1C(=O)N2[C@@H]1SC(C)(C)[C@@H]2C(=O)O,0.0244
12,Cc1ccc(S(=O)(=O)NC(=O)NN2CCCCCC2)cc1,0.103
13,Cc1ccsc1/C=C/C1=NCCCN1C,0.0698
14,CCCCCCCCCCCCCCCCOP(=O)([O-])OCC[N+](C)(C)C,0.324
15,CN1C(=O)C(O)N=C(c2ccccc2)c2cc(Cl)ccc21 (centres undefined),0.161
16,COc1cc(C=CC(=O)O)cc(OC)c1O,0.385
17,COc1cc(OC)c2c(=O)c(-c3ccc4c(c3)OCO4)coc2c1,0.161
18,O=C(COc1ccc(Cl)cc1)N1CCN(Cc2ccc3c(c2)OCO3)CC1,0.189
19,N[C@@H](Cc1ccc(O)cc1)C(=O)O,0.103
20,O=c1c(O)cc([C@H]2Oc3cc(O)cc(O)c3C[C@H]2O)cc2c([C@H]3Oc4cc(O)cc(O)c4C[C@H]3O)cc(O)c(O)c12,0.0667
21,CCCCCCCCC(=O)NCc1ccc(O)c(OC)c1,0.186
22,CCOc1ccc2nc3cc(N)ccc3c(N)c2c1,0.152
23,CCN(CC)CCNc1ccc(CO)c2sc3ccccc3c(=O)c12,0.104
24,CC(=O)N(CC(O)CO)c1c(I)c(C(=O)NCCO)c(I)c(C(=O)NCC(O)CO)c1I (centres undefined),0.245
25,CN1CCN(CC(=O)N2c3ccccc3C(=O)Nc3cccnc32)CC1,0.111

row,SMILES,fraction of eclosed F1 progeny that are homozygous ATM8
1,Cc1ccc([C@@H]2O[C@H](CO)[C@@H](O)[C@H](O)[C@H]2O)cc1Cc1ccc(-c2ccc(F)cc2)s1,0.156
2,COC(=O)Nc1nc2cc(Sc3ccccc3)ccc2[nH]1,0.037
3,COc1ccccc1-c1cc(=O)c2c(OC)cccc2o1,0.06
4,CC(C)NCC(O)COc1ccc(CC(N)=O)cc1 (centres undefined),0.0571
5,NC(Cn1ccc(=O)c(O)c1)C(=O)O (centres undefined),0.405
6,COc1cc(-c2ccc(/N=N/c3ccc4c(S(=O)(=O)O)cc(S(=O)(=O)O)c(N)c4c3O)c(OC)c2)ccc1/N=N/c1ccc2c(S(=O)(=O)O)cc(S(=O)(=O)O)c(N)c2c1O,0.0789
7,CN1CCN(C(=O)O[C@H]2c3nccnc3C(=O)N2c2ccc(Cl)cn2)CC1,0.204
8,O=C1CC[C@@H](C(=O)N2CSC[C@H]2C(=O)O)N1 ([pGlu]-[Thz]-OH),0.093
9,Oc1c(Cl)cc(Cl)c2cccnc12,0.0333
10,c1ccc(-c2ccc(C(c3ccccc3)n3ccnc3)cc2)cc1 (centres undefined),0.333
11,CN(C)CCC(c1ccc(Br)cc1)c1ccccn1 (centres undefined),0.316
12,NC(=O)c1cc([N+](=O)[O-])cc([N+](=O)[O-])c1,0.233
13,C[C@@](Cc1ccc(O)c(O)c1)(NN)C(=O)O,0.12
14,COc1ccc2c(c1O)-c1c(OC)c(OC)cc3c1[C@H](C2)N(C)CC3,0.0345
15,CCOc1nc2cccc(C(=O)O)c2n1Cc1ccc(-c2ccccc2-c2nnn[nH]2)cc1,0.037
16,O=c1[nH]cnc2nc[nH]c12,0.325
17,Nc1ncnc2c1ncn2[C@@H]1O[C@H](CO)[C@@H](O)[C@@H]1O,0.261
18,C[C@H]1C[C@H]2[C@@H]3CCC4=CC(=O)C=C[C@]4(C)[C@@]3(F)[C@@H](O)C[C@]2(C)[C@@]1(O)C(=O)COP(=O)(O)O,0.0566
19,O=C1CC[C@@]2(O)[C@H]3Cc4ccc(O)c5c4[C@@]2(CCN3CC2CC2)[C@H]1O5,0.0942
20,CCCCC(CC)COC(=O)CC(C(=O)OCC(CC)CCCC)S(=O)(=O)O (centres undefined),0.208
21,CC(=O)O[C@@H]1C[C@H]2C(C)(C)C(=O)C=C[C@]2(C)[C@H]2CC[C@@]3(C)[C@H](c4ccoc4)OC(=O)[C@H]4O[C@]43[C@@]21C,0.231
22,Cc1cc2nc3c(=O)[nH]c(=O)nc-3n(C[C@H](O)[C@H](O)[C@H](O)CO)c2cc1C,0.289
23,CCCOc1ccc2[nH]c(NC(=O)OC)nc2c1,0.113
24,CN(C)CCOC(c1ccccc1)c1ccccc1.Cn1c(=O)c2[nH]c(Cl)nc2n(C)c1=O,0.0698
25,COc1cc(C)c(C(=O)Oc2cc(C)c(C(=O)O)c(O)c2C)c(OC)c1C,0.196

row,SMILES,fraction of eclosed F1 progeny that are homozygous ATM8
1,O=C1NCC2(CCN(CCc3ccccc3)CC2)O1,0.0435
2,Clc1ccc2c(c1)CCc1cccnc1C2=C1CCNCC1,0.0167
3,CCOC(=O)CC(SP(=S)(OC)OC)C(=O)OCC (centres undefined),0.174
4,CC(=O)[C@@]1(O)CC[C@H]2[C@@H]3CCC4=CC(=O)CC[C@]4(C)[C@H]3CC[C@@]21C,0.222
5,O=C(c1ccc(F)cc1)C1CCN(CCn2c(=O)[nH]c3ccccc3c2=O)CC1,0.25
6,CC(N)Cc1ccc(O)cc1 (centres undefined),0.25
7,C[C@H]1[C@H](C)CC[C@]2(C(=O)O)CC[C@]3(C)C(=CC[C@@H]4[C@@]5(C)CC[C@H](O)C(C)(C)[C@@H]5CC[C@]43C)[C@H]12,0.103
8,Oc1cc2c(cc1O)C1c3ccc(O)c(O)c3OCC1(O)C2 (centres undefined),0.1
9,NC1(C(=O)O)CC1,0.3
10,COc1ccc(-c2cc(=O)c3c(O)c(OC)c(OC)c(OC)c3o2)cc1,0.102
11,CCN(CC)C(=O)c1ccc(O)c(OC)c1,0.103
12,CCCCCCCCCCCCCCCC(=O)OC[C@H](O)[C@H]1OC(=O)C(O)=C1O,0.0286
13,CC(NC(C)(C)C)C(=O)c1cccc(Cl)c1 (centres undefined),0.321
14,O=C(O)CCCO,0.184
15,CN(C)C(=N)NC(=N)N,0.0294
16,CC(=O)OC/C=C(\C)CC/C=C(\C)CC/C=C(\C)CC/C=C(\C)CC/C=C(\C)CC/C=C(\C)CC/C=C(\C)CC/C=C(\C)CCC=C(C)C,0.0615
17,NCc1cccnc1,0.12
18,NCCCCCC(=O)O,0.103
19,CC1=C(C)C(=O)C(C(CCCCCC(=O)O)c2ccccc2)=C(C)C1=O (centres undefined),0
20,CNCCc1ccccn1,0.361
21,CC=CC(=O)N(CC)c1ccccc1C,0.219
22,CC1CC2C3CCC4=CC(=O)C=CC4(C)C3(F)C(O)CC2(C)C1C(=O)CO (centres undefined),0.0978
23,CC1(C)CC2C1CC[C@]1(C)CCC3C(C(=O)O)CC(=O)O[C@@]32C1 (some centres undefined) [3-HYDROXY-4-(SUCCIN-2-YL)-CARYOLANE delta-LACTONE],0.3
24,Cc1cc(O)c(C(=O)N[C@@H](C(=O)N[C@@H]2C(=O)N3C(C(=O)O)=C(CSc4nnnn4C)CS[C@H]23)c2ccc(O)cc2)cn1,0.0312
25,CC(=O)O[C@]1(C(C)=O)CC[C@H]2[C@@H]3C=C(Cl)C4=CC(=O)CC[C@]4(C)[C@H]3CC[C@@]21C,0.2

# Taken from above:
# Value for COc1ccccc1-c1cc(=O)c2c(OC)cccc2o1 under fraction of eclosed F1 progeny that are homozygous ATM8: 0.06
# Value for COc1cc(NC(C)CCCN)c2ncccc2c1 (centres undefined) under fraction of eclosed F1 progeny that are homozygous ATM8: 0.3
# Value for CNCCc1ccccn1 under fraction of eclosed F1 progeny that are homozygous ATM8: 0.361
# Value for CCOC(=O)CC(SP(=S)(OC)OC)C(=O)OCC (centres undefined) under fraction of eclosed F1 progeny that are homozygous ATM8: 0.174
# Value for CC1CC2C3CCC4=CC(=O)C=CC4(C)C3(F)C(O)CC2(C)C1C(=O)CO (centres undefined) under fraction of eclosed F1 progeny that are homozygous ATM8: 0.0978
# Value for O=C(COc1ccc(Cl)cc1)N1CCN(Cc2ccc3c(c2)OCO3)CC1 under fraction of eclosed F1 progeny that are homozygous ATM8: 0.189
# Value for O=c1[nH]cnc2nc[nH]c12 under fraction of eclosed F1 progeny that are homozygous ATM8: 0.325

# Following part.

row,SMILES,fraction of eclosed F1 progeny that are homozygous ATM8
1,CCN(CC)C(C)CN1c2ccccc2Sc2ccccc21 (centres undefined),0.0909
2,CCCNC(=O)NS(=O)(=O)c1ccc(Cl)cc1,0.0789
3,Clc1cccc(Cl)c1NC1=NCCN1,0.0889
4,CO[C@H]1/C=C/O[C@@]2(C)Oc3c(C)c(O)c4c(O)c(c5c(nc6cc(C)ccn65)c4c3C2=O)NC(=O)/C(C)=C\C=C\[C@H](C)[C@H](O)[C@@H](C)[C@@H](O)[C@@H](C)[C@H](OC(C)=O)[C@@H]1C,0.298
5,CCN(CC)C(=O)C1(c2ccccc2)CC1CN (centres undefined),0.19
6,Cc1cc(C(C)(C)C)cc(C)c1CC1=NCCN1,0.265
7,CCN(CCCCOC(=O)c1ccc(OC)c(OC)c1)C(C)Cc1ccc(OC)cc1 (centres undefined),0.114
8,CC(C)(CO)[C@@H](O)C(=O)NCCC(=O)O [PANTOTHENIC ACID(d) Na salt],0.186
9,CCN(CC)CCOCCOC(=O)C1(c2ccccc2)CCCC1,0.0294
10,CC#CCn1c(N2CCC[C@@H](N)C2)nc2c1c(=O)n(Cc1nc(C)c3ccccc3n1)c(=O)n2C,0.385
11,O=C(CCBr)N1CCN(C(=O)CCBr)CC1,0.0625
12,CCCCC1C(=O)N(c2ccccc2)N(c2ccc(O)cc2)C1=O (centres undefined),0.171
13,N[C@H]1CONC1=O,0.279
14,COc1cc(OC)c2ccc(=O)oc2c1,0.0822
15,COC(=O)C1=CO[C@@H](O[C@@H]2O[C@H](CO)[C@@H](O)[C@H](O)[C@H]2O)[C@H]2[C@@H]1C(=O)C[C@@H]2C,0.106
16,COC(=O)C[C@H]1C2(C)CC34OC5(C)O[C@@]6([C@H](OC(C)=O)C(OC(C)=O)[C@]7(C)C(/C(=C(/O)C(C)C)C(=O)O[C@H]7c7ccoc7)[C@@]6(O5)[C@H](OC(C)=O)[C@@]3(O)C2OC(=O)C(C)C)[C@]14C (some centres undefined),0.139
17,C[C@@H]1O[C@@H](O[C@H]2CC[C@]3(C=O)[C@H]4CC[C@]5(C)[C@@H](C6=CC(=O)OC6)CC[C@]5(O)[C@@H]4CC[C@]3(O)C2)[C@H](O)[C@H](O)[C@H]1O,0.2
18,COc1cc2nc(N3CCN(C(=O)C4COc5ccccc5O4)CC3)nc(N)c2cc1OC (centres undefined),0.135
19,CC(=O)Nc1ccc(OC(=O)c2ccccc2O)cc1,0.0238
20,O=C(O)c1cc(=O)c(O)c2c(O)c(O)c(O)cc2c1,0.0536
21,O=c1c(O)c(-c2ccc(O)cc2)oc2cc(O)cc(O)c12,0.25
22,CCCCCCCCCC[C@H](C(=O)O)[C@]1(C(=O)O)CCC(=O)O1,0.0714
23,CCOC(=O)Nc1nc2ccccc2[nH]1,0.0217
24,CC1(C)C2CC(=O)[C@]3(C)C(CC[C@@]4(C)[C@H](c5ccoc5)OC(=O)C5OC543)[C@@]2(C)[C@@H](O)C[C@H]1O (some centres undefined),0.137
